Data from patent US20060111335A1, “Photoactivated anti-viral and anti-cancer agent” (priority 2002, published 2006).

System: Calf thymus DNA
Test: Dark association with DNA, UV-Visible titration (Example XI)
Assay type: binding
Settings: for Aobserved / [DNA]/Δεapp / Δεapp = εf − εapp / εapp: pH 7, I=0.15
[1] = 344 nm, [DNA] 0, [BISTAP] 2.48E−5
[2] = 344 nm, [DNA] 1.30E−4, [BISTAP] 2.33E−5
[3] = 344 nm, [DNA] 1.70E−4, [BISTAP] 2.28E−5
[4] = 344 nm, [DNA] 2.09E−4, [BISTAP] 2.24E−5
[5] = 344 nm, [DNA] 2.81E−4, [BISTAP] 2.15E−5
[6] = 344 nm, [DNA] 3.16E−4, [BISTAP] 2.11E−5
[7] = 344 nm, [DNA] 4.53E−5, [BISTAP] 2.43E−5

[Cl-].[Cl][Rh+]12([Cl])([N]3C=CC=c4c3c3c(c5nccnc45)=CC=C[N]31)[N]1C=CC=c3c1c1c(c4nccnc34)=CC=C[N]12
Aobserved [1]: 0.2340
[DNA]/Δεapp [1]: 0
Δεapp = εf − εapp [1]: 0
εapp [1]: 9435
Aobserved [2]: 0.2146
[DNA]/Δεapp [2]: 5.78E−7
Δεapp = εf − εapp [2]: 225
εapp [2]: 9210
Aobserved [3]: 0.2109
[DNA]/Δεapp [3]: 9.19E−7
Δεapp = εf − εapp [3]: 185
εapp [3]: 9250
Aobserved [4]: 0.2066
[DNA]/Δεapp [4]: 9.86E−7
Δεapp = εf − εapp [4]: 212
εapp [4]: 9223
Aobserved [5]: 0.1976
[DNA]/Δεapp [5]: 1.152E−6
Δεapp = εf − εapp [5]: 244
εapp [5]: 9191
Aobserved [6]: 0.1940
[DNA]/Δεapp [6]: 1.311E−6
Δεapp = εf − εapp [6]: 241
εapp [6]: 9194
Aobserved [7]: 0.2265
[DNA]/Δεapp [7]: 3.97E−7
Δεapp = εf − εapp [7]: 114
εapp [7]: 9321
Δε = εf − εb (from slope of [DNA]/Δεapp versus [DNA]): 294
εb, extinction coefficient of the DNA-bound form (εb = εf − Δε): 9141

CC1=C[N]2c3c4c(ccc3=C1C)=C(C)C(C)=C[N]4[Rh+]21([Cl])([Cl])[N]2C=C(C)C(C)=c3ccc4c(c32)[N]1C=C(C)C=4C.[Cl-] [OCTBP, cis-dichlorobis(3,4,7,8-tetramethyl-1,10-phenanthroline) rhodium(III) chloride]
[DNA]/Δεapp (337 nm, [DNA] 0, [OCTBP] 2.26E−5): 0
[DNA]/Δεapp (337 nm, [DNA] 1.30E−4, [OCTBP] 2.12E−5): 4.333E−7
[DNA]/Δεapp (337 nm, [DNA] 1.70E−4, [OCTBP] 2.08E−5): 4.913E−7
[DNA]/Δεapp (337 nm, [DNA] 2.46E−4, [OCTBP] 2.00E−5): 6.276E−7
[DNA]/Δεapp (337 nm, [DNA] 2.81E−4, [OCTBP] 1.96E−5): 7.187E−7
[DNA]/Δεapp (337 nm, [DNA] 3.80E−4, [OCTBP] 1.86E−5): 7.661E−7
[DNA]/Δεapp (337 nm, [DNA] 4.53E−5, [OCTBP] 2.21E−5): 3.624E−7
